Source: the supplement of paper PMC6411743
± gives the standard deviation of the averaged measurements. Only a part is listed here, and it is no random draw.

What was measured:
Assay in all cases: NP40-soluble protein abundance relative to vehicle (solubility fold change) (ratio); higher = more soluble protein in presence of AMP-PNP
[1] = target: T1, A0A087WW65|O75027 and related entries (UniProt O75027)
T1 sequence (whole entry): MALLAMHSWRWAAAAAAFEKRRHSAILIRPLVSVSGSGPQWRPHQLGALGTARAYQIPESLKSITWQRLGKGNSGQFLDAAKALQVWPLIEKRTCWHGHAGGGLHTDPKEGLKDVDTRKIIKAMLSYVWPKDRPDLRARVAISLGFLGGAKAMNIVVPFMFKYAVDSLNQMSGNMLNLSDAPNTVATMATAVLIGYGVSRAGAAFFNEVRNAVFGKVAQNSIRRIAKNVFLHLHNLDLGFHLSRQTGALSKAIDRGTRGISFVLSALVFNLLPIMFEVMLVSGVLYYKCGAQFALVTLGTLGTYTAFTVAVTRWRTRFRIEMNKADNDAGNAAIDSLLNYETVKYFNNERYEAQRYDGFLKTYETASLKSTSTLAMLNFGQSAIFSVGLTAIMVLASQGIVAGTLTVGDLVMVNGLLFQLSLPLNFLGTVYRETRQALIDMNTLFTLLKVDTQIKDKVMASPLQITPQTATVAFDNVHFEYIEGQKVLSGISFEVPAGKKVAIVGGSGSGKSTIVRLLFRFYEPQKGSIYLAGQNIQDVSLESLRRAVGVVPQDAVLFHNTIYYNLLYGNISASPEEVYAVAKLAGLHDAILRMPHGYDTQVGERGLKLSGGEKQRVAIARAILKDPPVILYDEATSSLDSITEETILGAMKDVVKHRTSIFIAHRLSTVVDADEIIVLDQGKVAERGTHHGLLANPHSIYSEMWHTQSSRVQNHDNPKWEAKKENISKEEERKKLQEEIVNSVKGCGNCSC
Procedure, shortened: (§1)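 Eight concentrations, 0.1 to 10 mM, were tested on Jurkat crude lysate for 10 min at room temperature and then 3 min at 37 °C, in three independent experiments. The lysate was solubilised with 0.8% NP40 and benzonase, ultracentrifuged, and the supernatant TMT-labelled for LC-MS/MS. Each value is the fold change against the detergent-processed vehicle in its own replicate, from vsn-normalised intensities.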

[2] = target: T2, A0A087WXR2|F5H1Z6 and related entries (UniProt Q9Y365)
T2 sequence (whole entry): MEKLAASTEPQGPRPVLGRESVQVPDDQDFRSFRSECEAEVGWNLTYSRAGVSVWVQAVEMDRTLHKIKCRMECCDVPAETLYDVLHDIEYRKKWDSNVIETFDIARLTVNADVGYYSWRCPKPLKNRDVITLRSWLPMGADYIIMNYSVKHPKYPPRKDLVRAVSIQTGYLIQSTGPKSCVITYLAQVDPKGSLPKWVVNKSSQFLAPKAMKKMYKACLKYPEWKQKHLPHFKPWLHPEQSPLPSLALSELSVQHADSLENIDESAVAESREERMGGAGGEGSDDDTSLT
Procedure, shortened: as §1

[3] = target: T3, A0A087X060|G3V2W9 and related entries (UniProt Q56P03)
T3 sequence (whole entry): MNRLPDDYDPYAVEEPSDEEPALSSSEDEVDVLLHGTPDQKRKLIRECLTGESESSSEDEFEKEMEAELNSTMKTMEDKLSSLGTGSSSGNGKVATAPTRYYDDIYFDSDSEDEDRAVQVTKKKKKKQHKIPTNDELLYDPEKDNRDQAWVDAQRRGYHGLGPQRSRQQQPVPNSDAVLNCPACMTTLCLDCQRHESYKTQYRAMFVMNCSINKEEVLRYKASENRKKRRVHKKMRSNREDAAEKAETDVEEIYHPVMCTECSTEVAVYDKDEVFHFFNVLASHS
Procedure, shortened: as §1

[4] = target: T4, A0A087X0R6|Q9UMY4 and related entries (UniProt Q9UMY4)
T4 sequence (whole entry): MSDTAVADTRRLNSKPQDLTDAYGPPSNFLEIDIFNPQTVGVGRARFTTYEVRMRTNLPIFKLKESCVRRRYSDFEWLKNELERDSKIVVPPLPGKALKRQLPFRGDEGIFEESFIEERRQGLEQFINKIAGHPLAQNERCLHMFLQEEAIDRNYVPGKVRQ
Procedure, shortened: as §1

[5] = target: T5, A0A087X117|A0A0G2JN29|Q15155 (UniProt Q15155)
T5 sequence (whole entry): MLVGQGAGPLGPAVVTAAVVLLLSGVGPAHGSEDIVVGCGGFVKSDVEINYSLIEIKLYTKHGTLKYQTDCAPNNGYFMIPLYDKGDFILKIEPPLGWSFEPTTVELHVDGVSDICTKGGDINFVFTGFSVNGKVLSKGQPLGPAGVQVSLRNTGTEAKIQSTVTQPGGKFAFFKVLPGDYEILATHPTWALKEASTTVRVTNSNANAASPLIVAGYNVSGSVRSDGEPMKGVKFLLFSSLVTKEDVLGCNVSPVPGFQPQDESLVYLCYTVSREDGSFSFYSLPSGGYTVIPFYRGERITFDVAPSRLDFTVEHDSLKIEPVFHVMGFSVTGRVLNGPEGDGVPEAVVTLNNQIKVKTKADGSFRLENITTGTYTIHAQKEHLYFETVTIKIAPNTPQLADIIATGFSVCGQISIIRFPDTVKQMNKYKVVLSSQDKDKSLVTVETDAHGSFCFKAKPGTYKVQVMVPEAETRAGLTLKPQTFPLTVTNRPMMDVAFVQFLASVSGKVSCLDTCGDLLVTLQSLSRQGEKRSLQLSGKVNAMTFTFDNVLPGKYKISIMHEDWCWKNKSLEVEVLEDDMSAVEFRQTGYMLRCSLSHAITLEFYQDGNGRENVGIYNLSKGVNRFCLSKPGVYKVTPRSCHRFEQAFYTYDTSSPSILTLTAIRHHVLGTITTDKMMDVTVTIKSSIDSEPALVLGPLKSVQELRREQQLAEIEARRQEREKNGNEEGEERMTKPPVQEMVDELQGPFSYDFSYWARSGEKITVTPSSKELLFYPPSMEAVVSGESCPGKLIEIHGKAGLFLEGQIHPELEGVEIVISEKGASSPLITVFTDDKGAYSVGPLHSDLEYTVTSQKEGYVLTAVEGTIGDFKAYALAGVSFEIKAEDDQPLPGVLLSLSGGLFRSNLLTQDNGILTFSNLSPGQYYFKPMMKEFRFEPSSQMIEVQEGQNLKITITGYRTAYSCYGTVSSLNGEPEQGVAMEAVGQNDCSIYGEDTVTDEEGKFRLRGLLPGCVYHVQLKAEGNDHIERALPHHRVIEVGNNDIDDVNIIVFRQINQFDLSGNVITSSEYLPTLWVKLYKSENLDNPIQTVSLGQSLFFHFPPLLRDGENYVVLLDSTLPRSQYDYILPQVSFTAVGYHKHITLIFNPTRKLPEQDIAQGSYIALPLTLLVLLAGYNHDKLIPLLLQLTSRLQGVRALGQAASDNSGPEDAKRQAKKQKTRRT
Procedure, shortened: as §1

## Nc1ncnc2c1ncn2[C@@H]1O[C@H](COP(=O)(O)OP(=O)(O)NP(=O)(O)O)[C@@H](O)[C@H]1O [adenylyl imidodiphosphate]
[1]; concentration: 1mM
  NP40-soluble protein abundance: 1.03 ± 0.03
[1]; concentration: 2mM
  NP40-soluble protein abundance: 0.983 ± 0.032
[1]; concentration: 4mM
  NP40-soluble protein abundance: 1.004 ± 0.0085
[1]; concentration: 6mM
  NP40-soluble protein abundance: 0.97 ± 0.032
[1]; concentration: 8mM
  NP40-soluble protein abundance: 0.985 ± 0.02
[1]; concentration: 10mM
  NP40-soluble protein abundance: 0.956 ± 0.037
[2]; concentration: 1mM
  NP40-soluble protein abundance: 1.01 ± 0.039
[2]; concentration: 2mM
  NP40-soluble protein abundance: 1.02 ± 0.011
[2]; concentration: 4mM
  NP40-soluble protein abundance: 1.04 ± 0.025
[2]; concentration: 6mM
  NP40-soluble protein abundance: 1.05 ± 0.021
[2]; concentration: 8mM
  NP40-soluble protein abundance: 1.05 ± 0.065
[2]; concentration: 10mM
  NP40-soluble protein abundance: 1.08 ± 0.042
[3]; concentration: 1mM
  NP40-soluble protein abundance: 1.03 ± 0.048
[3]; concentration: 2mM
  NP40-soluble protein abundance: 1.02 ± 0.013
[3]; concentration: 4mM
  NP40-soluble protein abundance: 0.995 ± 0.03
[3]; concentration: 6mM
  NP40-soluble protein abundance: 0.989 ± 0.063
[3]; concentration: 8mM
  NP40-soluble protein abundance: 0.974 ± 0.01
[3]; concentration: 10mM
  NP40-soluble protein abundance: 1.01 ± 0.013
[4]; concentration: 1mM
  NP40-soluble protein abundance: 1.06 ± 0.029
[4]; concentration: 2mM
  NP40-soluble protein abundance: 1.11 ± 0.041
[4]; concentration: 4mM
  NP40-soluble protein abundance: 1.07 ± 0.059
[4]; concentration: 6mM
  NP40-soluble protein abundance: 1 ± 0.036
[4]; concentration: 8mM
  NP40-soluble protein abundance: 1.05 ± 0.034
[4]; concentration: 10mM
  NP40-soluble protein abundance: 1.02 ± 0.03
[5]; concentration: 1mM
  NP40-soluble protein abundance: 1.01 ± 0.016
[5]; concentration: 2mM
  NP40-soluble protein abundance: 1.03 ± 0.03
[5]; concentration: 4mM
  NP40-soluble protein abundance: 1 ± 0.02
